Measurements as given in the supplement of paper PMC10849652.
The other results are listed elsewhere or left out.

The chains behind the UniProt entries cited, without tags or fusion partners. Where a name states a change or a piece, a line headed by the entry shows the natural chain unless it says otherwise.
UniProt Q9BT17: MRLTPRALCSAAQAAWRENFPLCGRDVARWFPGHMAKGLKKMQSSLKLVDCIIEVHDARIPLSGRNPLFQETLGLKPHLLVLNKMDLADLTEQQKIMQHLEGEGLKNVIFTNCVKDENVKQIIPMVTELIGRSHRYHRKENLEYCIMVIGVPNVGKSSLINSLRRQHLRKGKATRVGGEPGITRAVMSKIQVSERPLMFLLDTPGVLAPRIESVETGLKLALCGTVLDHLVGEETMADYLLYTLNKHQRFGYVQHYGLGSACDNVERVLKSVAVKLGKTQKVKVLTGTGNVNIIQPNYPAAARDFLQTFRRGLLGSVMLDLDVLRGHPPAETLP
UniProt P00403, whole entry, looked up: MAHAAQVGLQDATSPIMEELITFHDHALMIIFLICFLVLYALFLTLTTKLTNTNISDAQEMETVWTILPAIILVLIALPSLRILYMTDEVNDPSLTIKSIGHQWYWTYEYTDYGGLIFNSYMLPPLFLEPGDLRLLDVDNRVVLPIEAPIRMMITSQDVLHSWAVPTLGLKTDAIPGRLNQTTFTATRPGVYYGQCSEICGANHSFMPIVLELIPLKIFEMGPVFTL
UniProt Q969H8: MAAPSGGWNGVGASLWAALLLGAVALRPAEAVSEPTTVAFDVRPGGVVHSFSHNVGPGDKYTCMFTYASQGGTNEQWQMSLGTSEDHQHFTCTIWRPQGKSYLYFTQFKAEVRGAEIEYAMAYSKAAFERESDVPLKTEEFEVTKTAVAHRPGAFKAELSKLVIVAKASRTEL
UniProt P35579, whole entry, looked up: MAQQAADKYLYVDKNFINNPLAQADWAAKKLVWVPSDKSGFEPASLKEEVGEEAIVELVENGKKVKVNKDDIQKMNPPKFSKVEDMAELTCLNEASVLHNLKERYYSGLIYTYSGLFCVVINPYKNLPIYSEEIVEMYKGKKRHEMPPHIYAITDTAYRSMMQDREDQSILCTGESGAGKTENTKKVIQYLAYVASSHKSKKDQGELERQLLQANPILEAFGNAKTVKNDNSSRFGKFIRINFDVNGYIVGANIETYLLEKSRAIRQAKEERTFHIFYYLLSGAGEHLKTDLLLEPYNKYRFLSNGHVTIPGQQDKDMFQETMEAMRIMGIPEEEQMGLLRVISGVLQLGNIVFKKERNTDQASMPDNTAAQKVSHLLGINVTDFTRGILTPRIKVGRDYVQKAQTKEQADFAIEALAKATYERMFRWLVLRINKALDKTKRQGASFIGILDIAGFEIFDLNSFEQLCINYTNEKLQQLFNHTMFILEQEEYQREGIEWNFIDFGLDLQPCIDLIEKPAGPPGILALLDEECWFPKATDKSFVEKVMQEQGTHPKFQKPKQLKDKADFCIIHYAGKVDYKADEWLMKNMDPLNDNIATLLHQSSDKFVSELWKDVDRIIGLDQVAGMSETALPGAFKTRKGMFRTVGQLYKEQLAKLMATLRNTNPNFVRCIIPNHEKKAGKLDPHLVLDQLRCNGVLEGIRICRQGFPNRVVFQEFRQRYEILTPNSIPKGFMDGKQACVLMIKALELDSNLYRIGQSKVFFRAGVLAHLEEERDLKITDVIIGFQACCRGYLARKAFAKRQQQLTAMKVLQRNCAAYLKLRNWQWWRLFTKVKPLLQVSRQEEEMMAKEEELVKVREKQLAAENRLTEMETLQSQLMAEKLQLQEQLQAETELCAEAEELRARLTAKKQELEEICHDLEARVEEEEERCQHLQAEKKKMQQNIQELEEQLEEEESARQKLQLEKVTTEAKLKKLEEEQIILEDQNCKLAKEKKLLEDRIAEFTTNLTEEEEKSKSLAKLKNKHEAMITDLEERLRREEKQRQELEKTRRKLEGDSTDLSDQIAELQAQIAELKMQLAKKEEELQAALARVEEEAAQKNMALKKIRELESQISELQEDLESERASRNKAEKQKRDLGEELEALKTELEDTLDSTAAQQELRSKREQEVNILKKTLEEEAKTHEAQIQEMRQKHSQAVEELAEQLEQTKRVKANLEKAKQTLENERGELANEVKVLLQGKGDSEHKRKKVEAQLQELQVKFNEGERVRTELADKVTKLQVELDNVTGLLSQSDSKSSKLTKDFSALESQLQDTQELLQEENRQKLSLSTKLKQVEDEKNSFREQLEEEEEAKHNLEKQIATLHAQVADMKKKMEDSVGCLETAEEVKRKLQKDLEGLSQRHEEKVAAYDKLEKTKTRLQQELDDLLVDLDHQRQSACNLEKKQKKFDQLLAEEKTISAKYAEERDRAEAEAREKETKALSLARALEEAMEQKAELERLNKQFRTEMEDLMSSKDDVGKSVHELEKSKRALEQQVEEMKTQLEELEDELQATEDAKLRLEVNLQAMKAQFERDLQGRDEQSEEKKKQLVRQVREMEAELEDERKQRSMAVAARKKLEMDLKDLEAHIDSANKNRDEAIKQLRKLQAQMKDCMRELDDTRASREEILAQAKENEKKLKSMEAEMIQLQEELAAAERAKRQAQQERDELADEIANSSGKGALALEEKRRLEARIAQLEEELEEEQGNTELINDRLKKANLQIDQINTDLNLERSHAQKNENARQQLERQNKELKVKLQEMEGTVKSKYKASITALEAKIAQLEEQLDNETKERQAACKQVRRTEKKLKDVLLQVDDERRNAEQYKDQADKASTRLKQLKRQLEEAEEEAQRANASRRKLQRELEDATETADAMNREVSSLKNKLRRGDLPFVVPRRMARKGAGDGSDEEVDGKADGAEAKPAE
UniProt P11586, whole entry, looked up: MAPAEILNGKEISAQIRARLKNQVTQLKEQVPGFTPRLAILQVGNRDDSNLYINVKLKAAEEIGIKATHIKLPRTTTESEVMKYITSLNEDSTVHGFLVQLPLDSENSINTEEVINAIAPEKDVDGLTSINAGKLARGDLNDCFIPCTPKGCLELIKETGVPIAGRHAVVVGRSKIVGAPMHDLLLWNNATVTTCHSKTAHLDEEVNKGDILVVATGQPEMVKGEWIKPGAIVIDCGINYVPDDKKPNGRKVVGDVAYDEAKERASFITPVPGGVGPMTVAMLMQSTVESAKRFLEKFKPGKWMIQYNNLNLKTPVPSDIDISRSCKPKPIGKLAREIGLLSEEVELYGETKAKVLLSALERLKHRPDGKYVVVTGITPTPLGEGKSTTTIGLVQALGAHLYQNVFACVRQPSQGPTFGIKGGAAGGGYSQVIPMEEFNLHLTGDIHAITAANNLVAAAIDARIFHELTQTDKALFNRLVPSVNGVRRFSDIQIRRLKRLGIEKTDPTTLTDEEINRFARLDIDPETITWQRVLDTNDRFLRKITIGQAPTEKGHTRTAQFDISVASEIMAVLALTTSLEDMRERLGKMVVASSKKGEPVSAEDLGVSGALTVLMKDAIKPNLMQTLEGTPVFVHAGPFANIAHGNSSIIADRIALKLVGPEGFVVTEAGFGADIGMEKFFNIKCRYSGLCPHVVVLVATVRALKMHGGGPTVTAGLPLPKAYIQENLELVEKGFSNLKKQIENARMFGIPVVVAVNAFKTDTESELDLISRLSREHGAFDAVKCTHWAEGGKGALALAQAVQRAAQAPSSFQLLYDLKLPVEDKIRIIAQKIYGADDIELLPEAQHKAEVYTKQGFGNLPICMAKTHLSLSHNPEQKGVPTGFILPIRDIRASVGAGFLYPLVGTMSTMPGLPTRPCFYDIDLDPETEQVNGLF
UniProt Q96DR8: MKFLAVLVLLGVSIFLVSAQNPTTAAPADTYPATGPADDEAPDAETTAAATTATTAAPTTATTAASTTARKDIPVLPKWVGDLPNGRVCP
UniProt Q969V6: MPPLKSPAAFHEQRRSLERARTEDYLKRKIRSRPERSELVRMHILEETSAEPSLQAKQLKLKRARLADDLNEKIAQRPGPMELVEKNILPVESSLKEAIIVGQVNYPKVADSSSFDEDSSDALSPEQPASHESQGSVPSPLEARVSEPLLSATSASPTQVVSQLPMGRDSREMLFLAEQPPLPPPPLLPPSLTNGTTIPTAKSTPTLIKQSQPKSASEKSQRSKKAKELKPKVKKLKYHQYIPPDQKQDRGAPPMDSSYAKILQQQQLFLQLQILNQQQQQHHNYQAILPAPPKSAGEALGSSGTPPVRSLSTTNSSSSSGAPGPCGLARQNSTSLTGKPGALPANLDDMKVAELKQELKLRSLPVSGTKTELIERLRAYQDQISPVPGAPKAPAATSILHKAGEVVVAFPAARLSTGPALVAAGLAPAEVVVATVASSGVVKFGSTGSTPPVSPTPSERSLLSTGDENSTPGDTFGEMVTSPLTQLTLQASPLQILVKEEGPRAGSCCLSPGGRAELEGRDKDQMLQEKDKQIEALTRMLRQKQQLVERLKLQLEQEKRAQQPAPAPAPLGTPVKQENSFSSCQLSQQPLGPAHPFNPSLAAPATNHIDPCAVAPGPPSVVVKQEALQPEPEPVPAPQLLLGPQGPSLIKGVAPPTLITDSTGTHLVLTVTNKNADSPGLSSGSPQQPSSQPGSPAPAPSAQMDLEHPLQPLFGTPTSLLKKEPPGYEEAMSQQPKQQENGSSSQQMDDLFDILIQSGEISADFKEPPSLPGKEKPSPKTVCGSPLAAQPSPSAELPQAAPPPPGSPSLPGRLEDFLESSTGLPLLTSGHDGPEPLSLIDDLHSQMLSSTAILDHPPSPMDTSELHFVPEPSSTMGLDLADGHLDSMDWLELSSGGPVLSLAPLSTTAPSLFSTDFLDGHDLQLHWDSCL
UniProt P12829: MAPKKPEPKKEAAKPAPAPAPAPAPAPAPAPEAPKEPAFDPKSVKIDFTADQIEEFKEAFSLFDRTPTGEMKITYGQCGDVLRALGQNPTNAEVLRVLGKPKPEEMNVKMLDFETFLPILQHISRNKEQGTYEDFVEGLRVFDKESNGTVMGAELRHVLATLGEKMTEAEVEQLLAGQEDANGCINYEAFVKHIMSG
UniProt Q6P444: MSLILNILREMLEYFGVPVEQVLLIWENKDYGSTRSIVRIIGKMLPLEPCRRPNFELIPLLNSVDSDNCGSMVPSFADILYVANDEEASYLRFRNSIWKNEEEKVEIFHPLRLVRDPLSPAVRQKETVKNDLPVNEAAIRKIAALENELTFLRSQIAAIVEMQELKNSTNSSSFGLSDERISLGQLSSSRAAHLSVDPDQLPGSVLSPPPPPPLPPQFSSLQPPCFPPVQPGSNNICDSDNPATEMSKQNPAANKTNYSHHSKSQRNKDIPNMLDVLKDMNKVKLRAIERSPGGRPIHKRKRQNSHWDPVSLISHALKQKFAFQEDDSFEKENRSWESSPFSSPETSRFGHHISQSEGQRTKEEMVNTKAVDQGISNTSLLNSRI
UniProt Q9NVV4: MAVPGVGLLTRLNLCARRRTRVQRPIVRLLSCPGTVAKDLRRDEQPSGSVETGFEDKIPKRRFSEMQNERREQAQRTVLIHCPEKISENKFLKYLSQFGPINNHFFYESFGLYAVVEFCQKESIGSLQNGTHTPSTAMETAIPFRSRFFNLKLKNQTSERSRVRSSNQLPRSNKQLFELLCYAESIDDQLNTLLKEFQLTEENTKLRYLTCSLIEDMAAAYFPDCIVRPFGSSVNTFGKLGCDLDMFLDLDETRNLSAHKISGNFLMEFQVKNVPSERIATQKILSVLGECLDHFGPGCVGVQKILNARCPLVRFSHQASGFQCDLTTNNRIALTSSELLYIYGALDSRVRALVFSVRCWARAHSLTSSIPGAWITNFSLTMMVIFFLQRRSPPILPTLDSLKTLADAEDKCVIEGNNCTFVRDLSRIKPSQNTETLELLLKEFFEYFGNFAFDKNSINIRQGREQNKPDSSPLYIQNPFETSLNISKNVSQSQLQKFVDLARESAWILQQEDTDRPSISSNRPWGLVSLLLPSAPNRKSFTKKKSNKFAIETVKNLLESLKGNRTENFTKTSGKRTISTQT
UniProt Q9UBK8: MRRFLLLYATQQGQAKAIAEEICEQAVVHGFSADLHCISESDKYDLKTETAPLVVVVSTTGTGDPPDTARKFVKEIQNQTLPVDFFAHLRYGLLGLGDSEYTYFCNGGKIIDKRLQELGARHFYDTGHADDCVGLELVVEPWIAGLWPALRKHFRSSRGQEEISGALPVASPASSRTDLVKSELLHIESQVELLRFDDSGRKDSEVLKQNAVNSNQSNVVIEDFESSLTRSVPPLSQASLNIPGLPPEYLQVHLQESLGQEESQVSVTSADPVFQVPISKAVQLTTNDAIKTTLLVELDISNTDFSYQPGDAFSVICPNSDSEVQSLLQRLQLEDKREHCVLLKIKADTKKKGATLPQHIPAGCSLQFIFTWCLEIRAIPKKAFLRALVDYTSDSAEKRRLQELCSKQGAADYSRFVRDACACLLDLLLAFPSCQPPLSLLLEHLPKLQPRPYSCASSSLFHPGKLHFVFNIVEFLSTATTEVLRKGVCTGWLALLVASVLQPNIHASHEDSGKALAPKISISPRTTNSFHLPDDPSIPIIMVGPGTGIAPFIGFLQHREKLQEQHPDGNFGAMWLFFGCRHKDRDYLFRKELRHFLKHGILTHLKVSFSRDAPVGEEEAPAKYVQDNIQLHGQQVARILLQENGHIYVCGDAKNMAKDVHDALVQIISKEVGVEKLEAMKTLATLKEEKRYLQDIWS

Tests used:
Test in all cases: log2 fold change, soluble protein after heating vs DMSO (PISA); higher = thermal stabilisation; K562 cells, 10 uM, 30 min; active = over 0.2 and 3.5 SD of the protein, either way, in both replicates (recomputed)
[1] = compound: C1=CC=C(C=C1)[C@H](COC2=CC3=C(C=C2)NC(=O)N3)NC(=O)C4=CC=CN(C4=O)CC5=CC(=C(C=C5)F)F
How it was run: (§1)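 Thermal stability values are relative to control samples and come from duplicates. They are expressed as log2 fold changes. For measurement, K562 cells (2×10^6 cells/mL) received 10 μM compound for 30 min, and aliquots were heated for 3 min over 48°C-58°C, pooled, and extracted at 4°C in PBS with 0.5% NP-40. Soluble protein, the supernatant after 21,000xg for 90 min, was quantified by TMTpro 16plex LC-MS/MS with equalised channel sums.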

[2] = compound: CC1=C(SC2=C1C(=N[C@H](C3=NN=C(N32)C)CC(=O)N)C4=CC=C(C=C4)Cl)C
How it was run: as §1

[3] = compound: CC1=C2C(=CC=C1)N=C(N(C2=O)C3=CC=CC=C3C)CN4C=NC5=C(N=CN=C54)N
How it was run: as §1

[4] = compound: Cc1sc2c(c1C)C(c1ccc(Cl)cc1)=N[C@@H](CC(=O)OC(C)(C)C)c1nnc(C)n1-2
How it was run: as §1

[5] = compound: c1ccc([C@@H]2C[C@H]2NC2CCNCC2)cc1
How it was run: as §1

Measured: log2 fold change

MYH16 (UniProt Q9H6N6)
inactive: [1] -0.164 | [2] -0.042 | [3] -0.142 | [4] 0.069 | [5] -0.034

MRS2 (UniProt Q9HD23)
inactive: [1] 0.023 | [2] -0.019 | [3] -0.019 | [4] 0.004 | [5] 0.005

MTG1 (UniProt Q9BT17)
inactive: [1] 0.051 | [2] -0.03 | [3] -0.12 | [4] -0.025 | [5] -0.04

MT-CO2 (UniProt P00403)
inactive: [1] -0.035 | [2] -0.005 | [3] -0.016 | [4] 0.035 | [5] 0.035

MYDGF (UniProt Q969H8)
inactive: [1] 0.044 | [2] 0.009 | [3] -0.007 | [4] -0.018 | [5] 0.031

MRPS30 (UniProt Q9NP92)
inactive: [1] 0.103 | [2] -0.102 | [3] -0.047 | [4] 0.037 | [5] 0.018

MYH9 (UniProt P35579)
inactive: [1] -0.027 | [2] 0.04 | [3] -0.012 | [4] -0.022 | [5] -0.038

MT-CO1 (UniProt P00395)
inactive: [1] 0.024 | [2] 0.108 | [3] -0.073 | [4] -0.179 | [5] 0.1

MTHFD1 (UniProt P11586)
inactive: [1] -0.059 | [2] 0.024 | [3] 0.018 | [4] -0.013 | [5] -0.019

MRPL9 (UniProt Q9BYD2)
inactive: [1] 0.077 | [2] -0.058 | [3] -0.082 | [4] 0.089 | [5] 0.01

MRPS18C (UniProt Q9Y3D5)
inactive: [1] 0.036 | [2] 0.002 | [3] 0.066 | [4] 0.083 | [5] 0.017

MTMR1 (UniProt Q13613)
inactive: [1] -0.009 | [2] -0.097 | [3] -0.01 | [4] 0.104 | [5] -0.009

MRPS12 (UniProt O15235)
inactive: [1] 0.019 | [2] -0.121 | [3] -0.176 | [4] 0.093 | [5] 0.061

MUCL1 (UniProt Q96DR8)
inactive: [1] -0.049 | [2] 0.137 | [3] -0.057 | [4] -0.33 | [5] -0.007

MTM1 (UniProt Q13496)
inactive: [1] 0.028 | [2] 0 | [3] -0.026 | [4] -0.055 | [5] -0.021

MRTFA (UniProt Q969V6)
inactive: [1] -0.044 | [2] 0.107 | [3] -0.225 | [4] -0.1 | [5] -0.013

Two records picked at random from those above, as already listed:
MYDGF (UniProt Q969H8)
inactive: [1] 0.044 | [2] 0.009 | [3] -0.007 | [4] -0.018 | [5] 0.031

MRPS12 (UniProt O15235)
inactive: [1] 0.019 | [2] -0.121 | [3] -0.176 | [4] 0.093 | [5] 0.061

Next part.

MVK (UniProt Q03426)
inactive: [1] -0.015 | [2] 0.014 | [3] 0.047 | [4] -0.006 | [5] 0.014

MTX1 (UniProt Q13505)
inactive: [1] 0.006 | [2] 0.016 | [3] -0.004 | [4] -0.002 | [5] -0.035

MTMR6 (UniProt Q9Y217)
inactive: [1] 0.075 | [2] -0.063 | [3] 0.073 | [4] -0.008 | [5] -0.095

MYL4 (UniProt P12829)
inactive: [1] 0.033 | [2] 0.031 | [3] 0.037 | [4] -0.046 | [5] 0.002

MTFR2 (UniProt Q6P444)
inactive: [1] 0.006 | [2] -0.03 | [3] 0.015 | [4] -0.126 | [5] 0.064

MTMR3 (UniProt Q13615)
inactive: [1] -0.093 | [2] 0.102 | [3] 0.078 | [4] -0.031 | [5] 0.048

MTPAP (UniProt Q9NVV4)
inactive: [1] -0.007 | [2] -0.2 | [3] -0.119 | [4] 0.086 | [5] 0.025

MTRR isoform 1 (UniProt Q9UBK8)
inactive: [1] -0.04 | [2] 0.064 | [3] 0.112 | [4] 0.038 | [5] -0.032
